For three substances, binding results are on record in publication PMC5680916.

Amino acid sequences for entries named in this document (tags omitted).
UniProt P01106: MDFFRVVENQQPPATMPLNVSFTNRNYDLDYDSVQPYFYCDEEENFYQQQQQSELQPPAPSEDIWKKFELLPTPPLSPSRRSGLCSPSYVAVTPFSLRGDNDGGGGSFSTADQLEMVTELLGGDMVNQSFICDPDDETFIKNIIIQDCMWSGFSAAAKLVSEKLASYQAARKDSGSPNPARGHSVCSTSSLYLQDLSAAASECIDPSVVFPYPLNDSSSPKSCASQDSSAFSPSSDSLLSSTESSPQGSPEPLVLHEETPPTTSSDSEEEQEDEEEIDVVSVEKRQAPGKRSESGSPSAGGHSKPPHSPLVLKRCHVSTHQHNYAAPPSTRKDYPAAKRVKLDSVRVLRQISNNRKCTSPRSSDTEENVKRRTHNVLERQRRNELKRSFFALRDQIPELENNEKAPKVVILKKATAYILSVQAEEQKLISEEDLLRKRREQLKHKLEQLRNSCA

These are yes or no findings as the source states them, for the method shown. Binding seen in cells or lysates may run through a third protein. Some binding calls cover weakened binding; strength is not graded here.

The target in the experiment is Calreticulin (human (endogenous in Capan-2 and AsPC-1)) (UniProt P27797). Briefly: co-IP; whole lysates of Capan-2 and AsPC-1 cells (20 mM Tris/HCl pH 7.4, 1.0% NP-40, 1 mM EDTA, 150 mM NaCl); CRT, c-Myc or IgG antibodies on magnetic beads, overnight at 4 °C; Western blot with CRT, c-Myc, Integrinβ1, Fibronectin and GAPDH antibodies. In general terms: In western blotting, separated proteins are transferred to a membrane and probed.
As to “Fibronectin (from UniProt P02751 32-2477)”, the binding result is given as “binds”.

Take Integrinβ1 (from UniProt P05556 21-798): the binding result was “binds”.

c-Myc (from UniProt P01106 1-454): the binding entry is “binds”.
